In publication PMC5768685:
Results are given in words; binding and its absence hold for the method and conditions named. In cells and extracts the contact can be indirect. Some results given as binding are weak or reduced against the parent protein; the word gives no strength. Where a sequence is shown, tags or fusion partners need not be part of it.

By UniProt entry, the sequences of proteins in these tests, tags left out. Where a name states a change or a piece, a line headed by the entry shows the natural chain unless it says otherwise.
UniProt Q07820: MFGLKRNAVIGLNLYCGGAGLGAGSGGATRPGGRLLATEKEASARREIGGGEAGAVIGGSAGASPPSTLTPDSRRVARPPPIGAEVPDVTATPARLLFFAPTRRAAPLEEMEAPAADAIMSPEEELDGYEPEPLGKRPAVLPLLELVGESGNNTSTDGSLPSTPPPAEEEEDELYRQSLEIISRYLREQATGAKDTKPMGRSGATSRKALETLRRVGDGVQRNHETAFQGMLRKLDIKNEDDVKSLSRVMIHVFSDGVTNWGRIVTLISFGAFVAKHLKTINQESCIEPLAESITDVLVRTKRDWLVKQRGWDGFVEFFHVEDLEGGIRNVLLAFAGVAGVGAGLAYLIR

Molecular target: T1, FLAG-USP13-C345A (human) (UniProt Q92995)
T1 sequence: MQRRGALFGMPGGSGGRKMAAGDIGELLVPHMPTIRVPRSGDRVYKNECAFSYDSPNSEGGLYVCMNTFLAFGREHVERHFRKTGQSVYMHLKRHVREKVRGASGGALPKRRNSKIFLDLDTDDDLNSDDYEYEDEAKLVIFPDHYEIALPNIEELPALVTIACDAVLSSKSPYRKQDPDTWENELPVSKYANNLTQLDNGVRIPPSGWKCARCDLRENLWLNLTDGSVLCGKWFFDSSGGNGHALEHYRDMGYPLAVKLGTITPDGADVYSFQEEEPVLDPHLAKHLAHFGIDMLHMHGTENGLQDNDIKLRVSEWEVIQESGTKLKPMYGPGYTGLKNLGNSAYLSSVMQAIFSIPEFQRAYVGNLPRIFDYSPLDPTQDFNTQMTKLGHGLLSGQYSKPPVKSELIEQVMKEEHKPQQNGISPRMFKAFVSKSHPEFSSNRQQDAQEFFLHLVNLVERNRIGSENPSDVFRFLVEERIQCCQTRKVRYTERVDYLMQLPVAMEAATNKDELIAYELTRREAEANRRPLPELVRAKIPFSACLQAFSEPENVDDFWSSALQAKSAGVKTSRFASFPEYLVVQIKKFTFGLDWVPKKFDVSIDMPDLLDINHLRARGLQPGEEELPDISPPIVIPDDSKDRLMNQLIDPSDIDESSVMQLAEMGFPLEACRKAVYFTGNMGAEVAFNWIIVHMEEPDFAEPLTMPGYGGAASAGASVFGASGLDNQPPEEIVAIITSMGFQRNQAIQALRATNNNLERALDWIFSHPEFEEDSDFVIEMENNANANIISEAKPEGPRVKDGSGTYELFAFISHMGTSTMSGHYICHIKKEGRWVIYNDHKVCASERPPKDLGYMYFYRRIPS
Experiment: co-IP; HEK293T transfected for 48 h, MG-132 for 8 h (Fig. 4a); IP lysis buffer (50 mM Tris-HCl pH 8.0, 150 mM NaCl, 10 mM KCl, 1.5 mM MgCl2, 0.5% NP-40, 10% glycerol, 1 mM EDTA); FLAG-USP13 precipitated on anti-FLAG M2 beads at 4 °C overnight, eluted with 3×FLAG peptide; MCL1 detected by blot

binding: binds
Substance: MCL1 in lysate of HEK293T cells transfected with FLAG-USP13 or FLAG-USP13-C345A (from UniProt Q07820 1-350)
